Assay results reported in PubChem BioAssay AID330 (DTP/NCI, 2004).
The list does not hold the whole screen: it is rich in T/C values a quarter to a half above the control, in often repeated tests (any T/C) and in doses without a T/C. Other doses and runs of a compound stand elsewhere. T/C: endpoint of the treated group in % of that of the vehicle group. Some doses have a count of surviving animals in place of a T/C: the source files T/C as zero there, which appears to mark a toxic dose or a test without result, not a measured value. Some survivor counts are full or nearly so, which does not show that the dose was tolerated: survival well below the control is almost never listed, so the zero probably covers shortened survival too. Counts of survivors are from the toxicity check (mostly the fifth day) where no day follows; animals may have died later. Schedules are NCI's codes, taken here to give the interval after Q, in days (D) or hours (H), and the number of doses after X. For survival time, the PubChem record calls one and a half times the control and up active, and a quarter to a half above the control has no call in these data; cut-offs in other NCI protocols can differ. Some T/C values are followed by the survivors on the day toxicity was checked, most often the fifth; without a count, all were alive then.

Tested on: P388 leukemia ip, CD2F1 mice, survival T/C
Assay: NCI In Vivo Anticancer Drug Screen. Data for tumor model P388 Leukemia (intraperitoneal) in CD2F1 (CDF1) mice
Conditions: T/C endpoint: median survival time, higher T/C = longer survival
[1] = dose: 400.0 mg/kg/injection, schedule: Q04DX002 (ip), vehicle: saline with Tween-80
[2] = dose: 200.0 mg/kg/injection, schedule: Q01DX005 (ip), vehicle: Klucel (hydroxypropylcellulose) (HPC)

C[n+]1c(-c2cc(C(F)(F)F)cc(C(F)(F)F)c2)c2cc(N)ccc2c2ccc(N)cc21
T/C (dose: 3.13 mg/kg/injection, schedule: Q01DX009 (ip), vehicle: saline with Tween-80): 142 % of control
T/C (dose: 6.25 mg/kg/injection, schedule: Q01DX009 (ip), vehicle: saline with Tween-80): 132 % of control
T/C (dose: 40.0 mg/kg/injection, schedule: Q01DX009 (ip), vehicle: water): 145 % of control
survivor count (dose: 100.0 mg/kg/injection, schedule: Q01DX009 (ip), vehicle: saline with Tween-80): 6 of 6

CC(C)=CC1CC(=O)OC1(C)C (configuration not stated)
survivor count (dose: 100.0 mg/kg/injection, schedule: Q04DX002 (ip), vehicle: saline with Tween-80): 2 of 6
survivor count (dose: 200.0 mg/kg/injection, schedule: Q04DX002 (ip), vehicle: saline with Tween-80): 1 of 6
survivor count [1]: 0 of 6

ClC1(Cl)C2CCCCC21 (configuration not stated)
survivor count (dose: 200.0 mg/kg/injection, schedule: Q01DX009 (ip), vehicle: saline with Tween-80): 0 of 6

CC1CN=C(c2ccc(NC(=O)NCCCNC(=O)Nc3ccc(C4=NCC(C)N4)cc3)cc2)N1 (configuration not stated)
T/C (dose: 12.5 mg/kg/injection, schedule: Q01DX005 (ip), vehicle: Klucel (hydroxypropylcellulose) (HPC)): 125 % of control
T/C (dose: 25.0 mg/kg/injection, schedule: Q01DX005 (ip), vehicle: Klucel (hydroxypropylcellulose) (HPC)): 134 % of control
survivor count (dose: 100.0 mg/kg/injection, schedule: Q01DX005 (ip), vehicle: Klucel (hydroxypropylcellulose) (HPC)): 3 of 6
survivor count [2]: 0 of 6

CC[C@@]1(O)C[C@H](OC2CC(N(C)C)C(OC3CC(O)C(O[C@@H]4O[C@@H](C)C(=O)C=C4N)C(C)O3)C(C)O2)c2c(cc3c(c2O)C(=O)c2c(O)ccc(O)c2C3=O)[C@H]1C(=O)OC (some centres not stated)
T/C (dose: 0.38 mg/kg/injection, schedule: Q01DX009 (ip), vehicle: saline): 144 % of control [5 of 6 alive]
survivor count (dose: 3.0 mg/kg/injection, schedule: Q01DX009 (ip), vehicle: saline with Tween-80): 3 of 6

OC1CC2CCC(C1)N2 (configuration not stated)
survivor count (dose: 240.0 mg/kg/injection, schedule: Q01DX005 (ip), vehicle: saline): 4 of 6

O=C1c2cc3c(-c4ccccc4)oc(-c4ccccc4)c3cc2C(=O)c2c(O)ccc(O)c21
survivor count (dose: 50.0 mg/kg/injection, schedule: Q01DX005 (ip), vehicle: saline with Tween-80): 5 of 6
survivor count (dose: 100.0 mg/kg/injection, schedule: Q01DX005 (ip), vehicle: saline with Tween-80): 6 of 6

O=c1ssc(=Nc2ccccc2)n1-c1ccccc1
T/C (dose: 50.0 mg/kg/injection, schedule: Q01DX009 (ip), vehicle: Klucel (hydroxypropylcellulose) (HPC)): 129 % of control
T/C (dose: 400.0 mg/kg/injection, schedule: Q01DX009 (ip), vehicle: Klucel (hydroxypropylcellulose) (HPC)): 127 % of control

CC1=NNB(O)c2c1sc(Br)c2Br
survivor count (dose: 400.0 mg/kg/injection, schedule: Q01DX001 (ip), vehicle: saline with Tween-80): 3 of 6

CSc1nc(NC2OC(COC(C)=O)C(OC(C)=O)C(OC(C)=O)C2OC(C)=O)c(N=C(C)C(C)=O)c(=O)n1C (configuration not stated)
survivor count (dose: 240.0 mg/kg/injection, schedule: Q01DX005 (ip), vehicle: saline with Tween-80): 6 of 6

CC(C)C1=C2C3CC(O)C(C=O)=CC(=O)C3(C)CCC2(C)CC1 (configuration not stated)
survivor count (dose: 50.0 mg/kg/injection, schedule: Q01DX009 (ip), vehicle: saline + alcohol): 3 of 6

O=c1[nH]c(-c2ccncc2)nnc1-c1ccc(Cl)cc1
survivor count [1]: 2 of 6

Cc1cccc(-n2c(C)nc3[nH]cc(C)c3c2=N)c1
survivor count [2]: 0 of 6

CC(=O)NCCc1nc(-c2nc(C(=O)O)cs2)cs1
survivor count (dose: 200.0 mg/kg/injection, schedule: Q01DX009 (ip), vehicle: distilled water + Tween-80): 6 of 6

Cc1c2ccnc(C#N)c2c(C)c2c1[nH]c1ccccc12
survivor count (dose: 12.5 mg/kg/injection, schedule: Q04DX003 (ip), vehicle: distilled water + Tween-80): 6 of 6
survivor count (dose: 25.0 mg/kg/injection, schedule: Q04DX003 (ip), vehicle: distilled water + Tween-80): 6 of 6
survivor count (dose: 50.0 mg/kg/injection, schedule: Q04DX003 (ip), vehicle: distilled water + Tween-80): 6 of 6
survivor count (dose: 100.0 mg/kg/injection, schedule: Q04DX003 (ip), vehicle: distilled water + Tween-80): 5 of 6
survivor count (dose: 200.0 mg/kg/injection, schedule: Q04DX003 (ip), vehicle: distilled water + Tween-80): 6 of 6

O=C(O)CCCNC1=CC(=O)c2ccccc2C1=O
survivor count (dose: 200.0 mg/kg/injection, schedule: Q04DX003 (ip), vehicle: saline with Tween-80): 3 of 6
survivor count (dose: 400.0 mg/kg/injection, schedule: Q04DX003 (ip), vehicle: saline with Tween-80): 0 of 6
